From paper PMC7948462 come the findings set out here.

By UniProt entry, the sequences of proteins in these tests, tags left out.
UniProt Q13131: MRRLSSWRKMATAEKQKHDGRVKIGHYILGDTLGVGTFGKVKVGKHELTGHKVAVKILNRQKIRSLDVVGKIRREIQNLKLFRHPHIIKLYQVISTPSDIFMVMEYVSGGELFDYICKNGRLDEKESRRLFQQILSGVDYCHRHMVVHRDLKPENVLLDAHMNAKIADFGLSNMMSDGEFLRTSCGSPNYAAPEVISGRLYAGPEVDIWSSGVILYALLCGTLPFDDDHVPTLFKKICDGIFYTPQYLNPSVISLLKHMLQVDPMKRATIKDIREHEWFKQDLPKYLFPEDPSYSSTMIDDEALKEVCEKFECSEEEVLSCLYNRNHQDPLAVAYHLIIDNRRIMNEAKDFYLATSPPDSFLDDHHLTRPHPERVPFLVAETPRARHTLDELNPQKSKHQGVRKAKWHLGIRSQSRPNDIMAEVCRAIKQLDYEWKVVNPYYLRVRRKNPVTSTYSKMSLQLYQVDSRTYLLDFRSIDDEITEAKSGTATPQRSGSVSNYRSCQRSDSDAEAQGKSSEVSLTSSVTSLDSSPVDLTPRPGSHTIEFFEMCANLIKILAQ
UniProt P46940: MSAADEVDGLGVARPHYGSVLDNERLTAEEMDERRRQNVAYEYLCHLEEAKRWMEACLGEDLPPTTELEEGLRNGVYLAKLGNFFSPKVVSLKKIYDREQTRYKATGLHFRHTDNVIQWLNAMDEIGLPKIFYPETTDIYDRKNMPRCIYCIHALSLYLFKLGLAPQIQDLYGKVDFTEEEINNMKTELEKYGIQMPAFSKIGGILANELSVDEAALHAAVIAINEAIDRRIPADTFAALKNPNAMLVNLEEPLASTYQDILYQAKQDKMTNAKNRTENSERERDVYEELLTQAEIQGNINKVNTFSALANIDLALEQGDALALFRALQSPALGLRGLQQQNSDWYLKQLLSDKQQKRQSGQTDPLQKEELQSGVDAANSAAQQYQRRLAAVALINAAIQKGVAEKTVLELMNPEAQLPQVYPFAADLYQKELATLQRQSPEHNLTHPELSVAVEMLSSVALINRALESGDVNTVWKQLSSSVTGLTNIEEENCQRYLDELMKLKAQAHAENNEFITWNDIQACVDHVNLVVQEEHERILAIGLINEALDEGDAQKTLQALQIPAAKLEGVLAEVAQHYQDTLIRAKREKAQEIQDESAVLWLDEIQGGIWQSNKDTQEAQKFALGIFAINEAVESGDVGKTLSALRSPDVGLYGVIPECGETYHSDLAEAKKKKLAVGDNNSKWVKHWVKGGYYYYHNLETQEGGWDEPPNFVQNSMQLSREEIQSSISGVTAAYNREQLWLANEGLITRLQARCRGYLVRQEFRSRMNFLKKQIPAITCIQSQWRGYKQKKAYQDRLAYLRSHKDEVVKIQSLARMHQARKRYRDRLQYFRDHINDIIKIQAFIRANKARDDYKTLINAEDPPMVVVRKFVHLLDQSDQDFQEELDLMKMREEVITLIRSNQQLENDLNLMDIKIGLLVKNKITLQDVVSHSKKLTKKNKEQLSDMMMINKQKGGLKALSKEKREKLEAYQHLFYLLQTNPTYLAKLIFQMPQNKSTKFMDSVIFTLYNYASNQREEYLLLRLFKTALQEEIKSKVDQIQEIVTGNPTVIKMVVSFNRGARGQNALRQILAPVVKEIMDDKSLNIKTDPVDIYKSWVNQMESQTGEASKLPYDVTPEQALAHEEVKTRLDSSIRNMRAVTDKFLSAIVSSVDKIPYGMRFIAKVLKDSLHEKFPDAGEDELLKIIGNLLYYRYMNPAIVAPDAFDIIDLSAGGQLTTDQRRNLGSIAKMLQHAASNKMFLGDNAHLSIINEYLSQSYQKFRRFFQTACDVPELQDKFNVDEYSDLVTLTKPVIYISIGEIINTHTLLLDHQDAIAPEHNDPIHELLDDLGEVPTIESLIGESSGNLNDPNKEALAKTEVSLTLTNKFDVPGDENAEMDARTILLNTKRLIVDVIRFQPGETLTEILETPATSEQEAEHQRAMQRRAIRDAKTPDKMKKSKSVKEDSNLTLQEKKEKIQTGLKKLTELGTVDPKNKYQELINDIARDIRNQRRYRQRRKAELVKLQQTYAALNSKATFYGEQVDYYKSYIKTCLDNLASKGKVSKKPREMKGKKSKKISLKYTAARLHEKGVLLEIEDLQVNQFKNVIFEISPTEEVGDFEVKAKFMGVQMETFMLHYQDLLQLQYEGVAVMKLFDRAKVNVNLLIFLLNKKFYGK

These are yes or no findings as the source states them, for the method shown. Binding seen in cells or lysates may run through a third protein. Some binding calls cover weakened binding; strength is not graded here.

The target of the assay is GFP-AMPKα1 (GFP-tagged α1 subunit of AMP-activated protein kinase) (UniProt Q13131). As to the kind of experiment: co-IP; GFP-tagged proteins immunoprecipitated with GFP-Trap Agarose from lysates of transfected HEK-293 cells, 3 h; blot with anti-IQGAP1.

As for “endogenous IQGAP1 (IQ motif-containing GTPase-activating protein 1) (from UniProt P46940 1-1657)”, the binding result is “binds”.
